Data source: PubChem BioAssay AID1224828 (NIAID, 2016)
Shown is a random part of about 17,000 reagents. Over the whole deposit, 762 (4.5%) got an active call. 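Active calls include both raised and lowered p65 entry, mostly lowered; wells with fewer than 50 cells lack a z-score.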 Raw values vary from plate to plate and are shown uncorrected. Reagent sequences are not shown.

Purpose: 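Find genes required for NF-kappaB p65 moving into the nucleus after LPS in mouse macrophages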 (primary screen)
Cells: mouse RAW264.7 G9 macrophage reporter cells (GFP-p65, Tnf promoter-mCherry)
Reagents: siRNA pool against mouse genes, 100 nM
Timing: 2 days siRNA transfection, then 40 min LPS before fixation
Treatment: LPS (Salmonella minnesota R595) at 10 ng/ml
Measured: 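Microscopy ratio of nuclear to perinuclear-ring GFP-p65 signal, scaled to the plate median; gene score is the average of two replicate robust z-scores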
Scale: p65 translocation robust z-score: higher = more nuclear NF-kappaB p65 after LPS than the plate median; nuclear/cytoplasmic p65 ratio: higher = more nuclear NF-kappaB p65
Hit rule: 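Called active when z exceeds 3.3 or falls under -1.56 (median of Tlr4 controls), giving activity score of at least 50; no calls for control wells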
Meaning of the calls: active = hit (p65 shift raised or lowered); inactive = no clear change

target gene	p65 translocation robust z-score	nuclear/cytoplasmic p65 ratio, rep 1	nuclear/cytoplasmic p65 ratio, rep 2	low cell count flag	activity call
9930038B18Rik (RIKEN cDNA 9930038B18 gene)	-1.46	1.26	1.3	enough cells to score	inactive
Capsl (calcyphosine-like)	-1.55	1.19	1.49	enough cells to score	inactive
Parn (poly(A)-specific ribonuclease (deadenylation nuclease))	-1.09	1.26	1.15	enough cells to score	inactive
Furin (furin, paired basic amino acid cleaving enzyme)	0.71	1.49	1.5	enough cells to score	inactive
Smagp (small cell adhesion glycoprotein)	0	1.62	1.8	enough cells to score	inactive
Slc35f6		1.16	1.07	fewer than 50 cells per well; well left out of scoring	inactive
Cnmd (chondromodulin)	0.63	1.54	1.52	enough cells to score	inactive
Trim47 (tripartite motif-containing 47)	3.31	1.87	1.56	enough cells to score	active
Zfa-ps (zinc finger protein, autosomal, pseudogene)	0.42	1.55	1.58	enough cells to score	inactive
Strn (striatin, calmodulin binding protein)	-0.64	1.17	1.16	enough cells to score	inactive
Dcaf5 (DDB1 and CUL4 associated factor 5)	0.9	1.52	1.36	enough cells to score	inactive

Continued (2 carried over from the part before).
target gene	p65 translocation robust z-score	nuclear/cytoplasmic p65 ratio, rep 1	nuclear/cytoplasmic p65 ratio, rep 2	low cell count flag	activity call
Strn (striatin, calmodulin binding protein)	-0.64	1.17	1.16	enough cells to score	inactive
Dcaf5 (DDB1 and CUL4 associated factor 5)	0.9	1.52	1.36	enough cells to score	inactive
Cdc37l1 (cell division cycle 37-like 1)	0.23	1.56	1.35	enough cells to score	inactive
Pcyt1b (phosphate cytidylyltransferase 1, choline, beta isoform)		1.33	1.28	fewer than 50 cells per well; well left out of scoring	inactive
Pkn3 (protein kinase N3)	1.27	1.92	1.51	enough cells to score	inactive
Nectin4 (nectin cell adhesion molecule 4)	1.03	1.72	1.61	enough cells to score	inactive
Zfp169 (zinc finger protein 169)	1.92	1.6	1.71	enough cells to score	inactive
Tro (trophinin)	1.42	1.55	1.41	enough cells to score	inactive
Gdap1 (ganglioside-induced differentiation-associated-protein 1)	0.17	1.43	1.42	enough cells to score	inactive
Tmem50b (transmembrane protein 50B)	-1.62	1.36	1.28	enough cells to score	active
Pcdhgb7 (protocadherin gamma subfamily B, 7)	0.72	1.51	1.35	enough cells to score	inactive
Trex2 (three prime repair exonuclease 2)	0.95	1.66	1.62	enough cells to score	inactive
Bmpr1a (bone morphogenetic protein receptor, type 1A)	-0.21	1.5	1.48	enough cells to score	inactive
Cd209e (CD209e antigen)	-0.22	1.46	1.86	enough cells to score	inactive
Alx1 (ALX homeobox 1)	-0.15	1.55	1.63	enough cells to score	inactive
